The values below are quoted from earlier work in US7588892B2, “Reagent sets and gene signatures for renal tubule injury” (Entelos, Inc., priority 2004, dated 2009).

SMILES strings stand for the structures.

In the data set the test system is renal tubules. The settings on record: rats, daily dose, route and vehicle of Table 2, day 5/7; absence of nephrotoxicity asserted from PDR and published literature; no histological injury on day 5/7; cited from earlier work.

As to `CCC[C@@H]1C[C@@H](C(=O)N[C@@H]([C@H]2O[C@H](SC)[C@H](O)[C@@H](O)[C@H]2O)[C@H](C)Cl)N(C)C1` [CLINDAMYCIN], the “Class (nephrotoxic / non-nephrotoxic training label)” value was “Non-nephrotoxic”.
